The list shows a part of the results. Further columns of the screen follow, without active or inactive calls. The list favours compounds with an active or inconclusive main result. The note in brackets gives the kind of curve behind each potency; many fits are weak.
Test: IkB Signaling
Conditions: ABC-DLBCL IkBa-CBG/CBR dual luciferase ratio (green luciferase fused to IkBa over red control in OCI-Ly3 lymphoma cells), 4 h
In short: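 In this assay, an IκBα–CBG68 fusion accumulates when IKK-driven degradation is blocked; native CBR normalizes for cell number. OCI-Ly3 cells were treated 4 h with compound and doxycycline, then green and red light read after Chroma-Glo addition.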

[1] = measured here: control luc red channel unless noted
[2] = measured here: IkB-luc green channel
[3] = measured here: control luc red channel

SMILES: O=C(CCn1c(=O)c2cccn2c2cccnc21)N1CCN(c2cccc(C(F)(F)F)c2)CC1
- AC50 [1]: 31.6 µM [falling, single point]

SMILES: O=C(Cn1c(=O)oc2cc(S(=O)(=O)NCc3ccccc3)ccc21)Nc1cccc(F)c1
- AC50 [1]: 15.8 µM [falling, single point]

SMILES: COc1cc(C)nc(N(Cc2ccccc2)S(=O)(=O)c2ccccc2)n1
- AC50 [1]: 20 µM [falling, partial curve, poor fit]

SMILES: COc1cc(OC)cc(C(=O)Nc2ccc(-c3nc4ccccc4s3)cc2C)c1
- AC50 [1]: 1 µM [rising, full curve]

SMILES: Cc1cc(C)n(-c2nc(C)c(C)c(=O)n2CC(=O)Nc2ccc([N+](=O)[O-])cc2)n1
- AC50 [1]: 6.31 µM [rising, single point]

SMILES: CC(=O)N1CCc2cc(S(=O)(=O)NCCC(=O)N3CCc4ccccc4C3)ccc21
- AC50 [1]: 25.1 µM [falling, partial curve]

SMILES: COCC(=O)n1nc(-c2ccco2)nc1NCc1ccccc1Cl
- AC50 [1]: 15.8 µM [falling, partial curve]

SMILES: COc1ccccc1CNC(=O)CCc1c(C)c2cc3c(C)c(C)oc3cc2oc1=O
- AC50 [1]: 39.8 µM [falling, single point]

SMILES: COc1ccc(CCNC(=O)c2ccc3c(c2)N(Cc2ccc(F)cc2)C(=O)c2ccccc2S3(=O)=O)cc1OC
- AC50 [1]: 6.31 µM [rising, partial curve, poor fit]

SMILES: Cc1c(C(=O)Nc2cccc(C(F)(F)F)c2)sc2nc[nH]c(=O)c12
- AC50 [1]: 25.1 µM [falling, single point]

SMILES: Cc1ccc(-n2ncc3c(NCCCN4CCOCC4)ncnc32)cc1C
- AC50 [1]: 39.8 µM [falling, single point]

SMILES: COCc1nnc(NC(=O)c2cc(OC)c(OC)c(OC)c2)s1
- AC50 [1]: 39.8 µM [falling, single point]

SMILES: COc1ccc(C(=O)/C=C/c2cn(CC(O)CN3CCc4ccccc43)c3ccccc23)cc1OC (stereo not drawn)
- AC50 [1]: 10 µM [falling, partial curve]

SMILES: Cc1ccccc1C(=O)N1CCN(c2ccc(NC(=O)c3ccco3)cc2Cl)CC1
- AC50 [2]: 15.8 µM [falling, partial curve]
- AC50 [3]: 20 µM [falling, partial curve]

SMILES: Cc1ccc(-n2c(C)cc(C(=O)OCC(=O)N(CC(C)C)C3CCS(=O)(=O)C3)c2C)cc1 (stereo not drawn)
- AC50 [1]: 7.94 µM [falling, partial curve]

SMILES: COCCn1c(=O)cnc2cnc(Nc3cccc(OC)c3)nc21
- AC50 [2]: 3.16 µM [falling, partial curve]
- AC50 [3]: 5.01 µM [falling, partial curve]
